In the assay the target is Ascaris lumbricoides β carbonic anhydrase (AlBCA) (Ascaris suum, UniProt F1LE18). The experiment in a line: biochemical.

Protein sequences, listed by entry. Tags and fused reporters are not part of them. Residues count along the entry.
UniProt F1LE18, 1-259: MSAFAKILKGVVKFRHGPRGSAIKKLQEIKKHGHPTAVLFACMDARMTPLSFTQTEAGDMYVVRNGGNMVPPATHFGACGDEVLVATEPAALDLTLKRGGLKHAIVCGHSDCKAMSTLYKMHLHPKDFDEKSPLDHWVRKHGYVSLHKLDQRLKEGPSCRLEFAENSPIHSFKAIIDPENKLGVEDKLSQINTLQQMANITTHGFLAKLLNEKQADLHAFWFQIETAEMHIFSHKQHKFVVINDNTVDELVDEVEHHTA

With `CC(=O)Nc1nnc(S(N)(=O)=O)s1` [AAZ, 5-acetamido-1,3,4-thiadiazole-2-sulfonamide], the affinity corresponds to a Ki of 84.1 ± 2.9 nM.
